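Malaria parasite (P. falciparum) lines kept in red blood cells; parasite DNA is measured by SYBR Green fluorescence after lysis, 72 h after compound addition. Each compound was titrated across a series from about 0.000037 to 29 µM. The number is the fitted AC50, the concentration giving a half-maximal change in signal; a lower value means higher potency, whether the curve shows a decrease or an increase. Calls follow the curve class and fit quality: every row here is inconclusive, covering signal-raising curves and weak, poorly fitted, partial or highest-dose-only inhibition curves.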

Values are in µM. Every entry below has the call inconclusive. These entries are mostly ones the record files as inconclusive; other results of the assay are not listed here. A potency from a partial, single-point or poor curve is only a rough figure. The first word of each remark tells which way the curve ran; it can be opposite to the aim of the assay.

Compound	setting	Potency (µM)	curve
C[N+]1([O-])[C@@H]2CC(OC(=O)[C@@H](CO)c3ccccc3)C[C@@H]1[C@H]1O[C@H]12 (some centres undefined)	CP203	6.424	inhibitor, single point
C[N+]1([O-])[C@@H]2CC(OC(=O)[C@@H](CO)c3ccccc3)C[C@@H]1[C@H]1O[C@H]12 (some centres undefined)	CP192	9.074	inhibitor, single point
C[N+]1([O-])[C@@H]2CC(OC(=O)[C@@H](CO)c3ccccc3)C[C@@H]1[C@H]1O[C@H]12 (some centres undefined)	DIV30	8.087	inhibitor, single point
C[N+]1([O-])[C@@H]2CC(OC(=O)[C@@H](CO)c3ccccc3)C[C@@H]1[C@H]1O[C@H]12 (some centres undefined)	CP325	8.087	inhibitor, single point
C[N+]1([O-])[C@@H]2CC(OC(=O)[C@@H](CO)c3ccccc3)C[C@@H]1[C@H]1O[C@H]12 (some centres undefined)	CP262	0.0005	activator
C[N+]1([O-])[C@@H]2CC(OC(=O)[C@@H](CO)c3ccccc3)C[C@@H]1[C@H]1O[C@H]12 (some centres undefined)	CP268	6.424	inhibitor, single point
C[N+]1([O-])[C@@H]2CC(OC(=O)[C@@H](CO)c3ccccc3)C[C@@H]1[C@H]1O[C@H]12 (some centres undefined)	GB4	6.424	inhibitor, single point
C[N+]1([O-])[C@@H]2CC(OC(=O)[C@@H](CO)c3ccccc3)C[C@@H]1[C@H]1O[C@H]12 (some centres undefined)	CP329	4.548	inhibitor, single point
C[N+]1([O-])[C@@H]2CC(OC(=O)[C@@H](CO)c3ccccc3)C[C@@H]1[C@H]1O[C@H]12 (some centres undefined)	DIV17	8.087	inhibitor, single point
C[N+]1([O-])[C@@H]2CC(OC(=O)[C@@H](CO)c3ccccc3)C[C@@H]1[C@H]1O[C@H]12 (some centres undefined)	DIV14	8.087	inhibitor, single point
OCc1ccccc1	PC26	19.01	inhibitor, single point
OCc1ccccc1	DFO2036	17.78	inhibitor, single point
OCc1ccccc1	DIV17	15.1	inhibitor, single point
OCc1ccccc1	ATS95	17.78	inhibitor, single point
OCc1ccccc1	DIV30	19.01	inhibitor, single point
OCc1ccccc1	CP237	17.78	inhibitor, single point
OCc1ccccc1	CP265	14.13	inhibitor, single point
OCc1ccccc1	TAB165	17.78	inhibitor, single point
OCc1ccccc1	CP269	19.01	inhibitor, single point
OCc1ccccc1	ECU	14.13	inhibitor, single point
OCc1ccccc1	CP297	15.1	inhibitor, single point
OCc1ccccc1	P93_24	8.912	inhibitor, single point
OCc1ccccc1	PC49	10	inhibitor, single point
OCc1ccccc1	CP268	19.01	inhibitor, single point
OCc1ccccc1	CP215	19.01	inhibitor, single point
OCc1ccccc1	CP217	17.78	inhibitor, single point
OCc1ccccc1	CP335	19.01	inhibitor, single point
OCc1ccccc1	parasite line A	11.22	inhibitor, single point
OCc1ccccc1	CP305	16.94	inhibitor, single point
OCc1ccccc1	3D7	12.59	inhibitor, single point
OCc1ccccc1	P94_40	11.22	inhibitor, single point

Some entries from above, unchanged:

With OCc1ccccc1 [CP297] the assay gave Potency 15.1 µM (inhibitor, single point).
With OCc1ccccc1 [PC26] the assay gave Potency 19.01 µM (inhibitor, single point).

From PubChem BioAssay record AID504749 (NCATS, 2011).